Measurements: PubChem BioAssay AID1347075 (National Center for Advancing Translational Sciences (NCATS), 2019)
In all, about 400,000 compounds went through this assay and about 5,500 (1.4%) were called active. The inconclusive results got no clear call from the source; some entries with a clear call stand among them for comparison. The call rests on the fitted dose curve; in most records, active means well fitted cell-killing curve with a large enough effect; inconclusive means small, poorly fitted or top-dose-only effect, or effect the other way; inactive means flat fitted curve, though single readings scatter. Where the call is inconclusive, the potency comes from a doubtful curve fit.

assay: qHTS assay for MDR1-selective chemotherapeutics: Primary screen using the parental adenocarcinoma cell KB-3-1; conditions: KB-3-1 viability, CellTiter-Glo ATP luminescence, 72 h; activity change, negative = cytotoxic: at 46.1 µM (top of the series); further: nearly all actives have a fitted effect of over 60% in size
How it was run: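 KB-3-1 cells, DMEM (no phenol red) + 10% FBS; compound by pin transfer, 72 h, 37 °C. Readout: CellTiter-Glo luminescence after 10 min. Data normalized, curve-fitted.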
On the % scale 0 is the no-effect control and ±100 the full control effect; potency means the concentration at half of the fitted maximal effect.

SMILES	Potency	activity change, negative = cytotoxic
COC(=O)[C@@]12C[C@@H](CC(=O)NCC34CC5CC(CC(C5)C3)C4)C(=O)N(Cc3ccco3)C1=CCC(C)(C)C2	inconclusive: 29.1 µM [cytotoxic, single point]	
COc1cc(C2C(C#N)=C(N)Oc3n[nH]c(-c4cccnc4)c32)cc(Br)c1O (stereo unspecified)	inconclusive: 29.1 µM [rising, single point]	
CC1=C(CO)C(=O)OC([C@@H](C)C2CC[C@H]3C4C[C@H]5O[C@]56[C@@H](O)C=CC(=O)[C@]6(C)C4CC[C@]23C)C1 (stereo partly specified)	inconclusive: 13 µM [cytotoxic, partial curve]	
Cc1cc(-c2ccccc2)n(-c2cc(N/N=C/c3ccccc3O)ncn2)n1	inconclusive: 0.651 µM [cytotoxic, full curve, poor fit]	
COc1cc(C=NNC(=O)c2ccccc2-n2cccc2)ccc1O	inconclusive: 25.9 µM [cytotoxic, single point]	
C[C@]12CC[C@H](O)CC1=CCC1C2CC[C@@]2(C)C1CC[C@@H]2NC(=O)[C@@H](N)Cc1ccccc1 (stereo partly specified)	inactive	
Cc1noc(C)c1COC(=O)c1cc(C)n(-c2ccccc2)c1C	inconclusive: 29.1 µM [cytotoxic, single point]	
COc1ccc(NC(=O)COc2cc(C)cc(C)c2)cc1S(=O)(=O)N1CCCCC1	inconclusive: 23.1 µM [cytotoxic, single point]	
Cn1c2ccccc2c2ncn(Cc3ccc(F)cc3)c(=O)c21	inconclusive: 16.4 µM [rising, single point]	
COC(=O)c1cccc(CN2C(=O)C(C)Sc3cc(Cl)ccc32)c1 (stereo unspecified)	inconclusive: 29.1 µM [cytotoxic, single point]	
O=C(c1ccc(Oc2ccccc2)cc1)C1CCCN(C(=O)c2cnccn2)C1 (stereo unspecified)	inactive	
COc1ccc(/C=N/NC(=O)c2cccc([N+](=O)[O-])c2)cc1OC(=O)c1ccccc1	inconclusive: 29.1 µM [cytotoxic, single point]	
Fc1ccc(Br)cc1C1C=C(c2ccc(Br)s2)Nc2ncnn21 (stereo unspecified)	inconclusive: 2.59 µM [cytotoxic, partial curve, poor fit]	
Cc1cc(NC(=O)COC(=O)CC2CCCC2)c([N+](=O)[O-])cc1C	inconclusive: 2.59 µM [rising, partial curve, poor fit]	
C=C(C(=O)c1ccccc1)C(C(=C)C(=O)c1ccccc1)c1ccc(OC)cc1	inconclusive: 16.4 µM [cytotoxic, single point]	
CCCCCCCNC(=O)C1(CC2CC(c3ccc(Cl)cc3)=NO2)CCN(C(=O)C2(C)CC2)CC1 (stereo unspecified)	inconclusive: 13 µM [cytotoxic, partial curve]	
CS(=O)(=O)N1CCc2cc(S(=O)(=O)Nc3ccc4c(c3)OCCO4)ccc21	inconclusive: 13 µM [cytotoxic, single point]	
Cc1nn(C)c(Cl)c1NC(=O)OCc1ccc(Cl)cc1Cl	active: 4.11 µM	
CCC(=O)N1CCN(c2cc(NCC3CCCO3)c(F)cc2[N+](=O)[O-])CC1 (stereo unspecified)	inconclusive: 16.4 µM [rising, partial curve]	
OCCC1CN(Cc2ccc(Oc3ncccn3)cc2)CCN1C1CCCC1 (stereo unspecified)	inconclusive: 2.06 µM [cytotoxic, partial curve, poor fit]	
Cc1nc2ccc(NC(=O)c3cccnc3)cc2s1	inconclusive: 9.2 µM [rising, partial curve]	
C=CC(=O)OCCOCCOCCOCCOC(=O)C=C	active: 10.3 µM	

SMILES	Potency	activity change, negative = cytotoxic
CNC(=S)N(CCc1c(C)[nH]c2ccc(Cl)cc12)Cc1cc(OC)c(OC)c(OC)c1	inconclusive: 29.1 µM [cytotoxic, single point]	
O=C(c1ccc(F)cc1)C(CN1CCOCC1)c1ccccc1 (stereo unspecified)	inconclusive: 29.1 µM [cytotoxic, single point]	
O=C(CCCN1C(=O)c2cccnc2C1=O)Nc1ccc(F)cc1Cl	inactive	
O=C(C[C@@H]1C=C[C@H](NC(=O)Cc2ccccn2)[C@@H](CO)O1)NCCc1ccccc1		inconclusive: 8.34%
Cc1c(-c2cccc(Cl)c2)nc2ccccc2c1C(=O)OC/C(O)=C(\C#N)c1nc2ccccc2[nH]1	inconclusive: 29.1 µM [cytotoxic, single point]	
C=CC[n+]1c(-c2ccc(C)cc2)csc1NNC(=O)Nc1ccccc1	inconclusive: 29.1 µM [cytotoxic, single point]	
Cn1nnnc1SCC(=O)NC1CCCC1	inconclusive: 29.1 µM [rising, single point]	
COc1ccc(N/N=C(/C(N)=O)C2=NC(C)(C)Cc3ccccc32)cc1	inconclusive: 20.6 µM [cytotoxic, single point]	
Nc1cc(=O)n(Cc2ccccc2)c(=O)n1-c1ccc(Cl)cc1	inactive	
O=C(OC(C(=O)NCc1ccco1)c1ccc(Cl)cc1)c1cccs1 (stereo unspecified)	inactive	
CCc1ccc2[nH]c(=O)c(CN(CCN(CC)CC)C(=O)Nc3ccccc3OC)cc2c1	inconclusive: 9.2 µM [cytotoxic, partial curve]	
CC(=O)N1CCSc2ccc(S(=O)(=O)NCCc3ccc(Cl)cc3)cc21	inactive	
COC(=O)c1ccc2c(=O)n(CC3CCCO3)c(SCC(=O)NCCc3ccc(S(N)(=O)=O)cc3)nc2c1 (stereo unspecified)	inconclusive: 9.2 µM [rising, partial curve]	
CN(C(=O)CN1CCN(c2cc(-c3ccc(-c4ccccc4)cc3)ncn2)CC1)c1ccccc1	inconclusive: 18.4 µM [cytotoxic, single point]	
CC(=C/c1ccccc1)/C=N/NC(=O)c1nnn(-c2nonc2N)c1CN1CCC(C)CC1	inactive	
CC12CCC3c4cc(CN5CCOCC5)c(O)cc4CCC3C1CCC2=O (stereo unspecified)	inconclusive: 1.03 µM [cytotoxic, partial curve]	
Cc1cc(NS(=O)(=O)c2ccc3nc(-c4ccccc4)[nH]c3c2)ccc1Br	inconclusive: 25.9 µM [cytotoxic, single point]	
C[C@@H]1CCCCO[C@H](CN(C)Cc2ccc3c(c2)OCO3)[C@@H](C)CN([C@H](C)CO)C(=O)c2cc(NC(=O)c3ccccc3)ccc2O1	inconclusive: 20.6 µM [cytotoxic, single point]	
Cc1ccc(N2CC(c3nnc(NC(=O)c4ccco4)s3)CC2=O)cc1Cl (stereo unspecified)	inactive	
COc1cccc(OC)c1C(=O)Nc1cc(C)on1		inconclusive: -41.8%
C=C(C)Cn1c2ccc(NC(=O)CCc3cccc(Cl)c3)cc2c(=O)n1C	inconclusive: 29.1 µM [cytotoxic, single point]	
Cc1ccc(N(C(=O)c2ccco2)C2C=CS(=O)(=O)C2)cc1 (stereo unspecified)	inconclusive: 0.0146 µM [rising, full curve]	

Six compounds from above, arranged by molecular weight, rising.
SMILES	Potency	activity change, negative = cytotoxic
Nc1cc(=O)n(Cc2ccccc2)c(=O)n1-c1ccc(Cl)cc1	inactive	
O=C(CCCN1C(=O)c2cccnc2C1=O)Nc1ccc(F)cc1Cl	inactive	
CC12CCC3c4cc(CN5CCOCC5)c(O)cc4CCC3C1CCC2=O (stereo unspecified)	inconclusive: 1.03 µM [cytotoxic, partial curve]	
Cc1ccc(N2CC(c3nnc(NC(=O)c4ccco4)s3)CC2=O)cc1Cl (stereo unspecified)	inactive	
O=C(C[C@@H]1C=C[C@H](NC(=O)Cc2ccccn2)[C@@H](CO)O1)NCCc1ccccc1		inconclusive: 8.34%
CCc1ccc2[nH]c(=O)c(CN(CCN(CC)CC)C(=O)Nc3ccccc3OC)cc2c1	inconclusive: 9.2 µM [cytotoxic, partial curve]	

Further records:

SMILES	Potency	activity change, negative = cytotoxic
Cc1sc(NC(=O)C2=COCCO2)nc1-c1ccc(F)cc1	inconclusive: 32.6 µM [cytotoxic, single point]	
COC(=O)c1c(C)[nH]c(C(=O)C(C)OC(=O)c2cnc(C)cn2)c1C (stereo unspecified)	inconclusive: 6.51 µM [cytotoxic, full curve]	
COc1ccc(NC(=O)CSc2nc3c([nH]c4ccccc43)c(=O)n2C)cc1		inconclusive: 24%
CCN(CC)c1ccc2c(-c3ccc(S(=O)(=O)O)cc3S(=O)(=O)[O-])c3ccc(=[N+](CC)CC)cc-3oc2c1		inconclusive: -35.2%
COc1ccc(C)cc1Nc1n[n+](-c2ccccc2)c(-c2cccc(Cl)c2Cl)s1	inconclusive: 29.1 µM [cytotoxic, single point]	
COc1cc2cc(-c3ccc(O)cc3O)nc(C)c2cc1OC	inconclusive: 14.6 µM [cytotoxic, single point]	
COC(=O)c1sccc1S(=O)(=O)N(CC(=O)NCc1ccccc1)c1ccccc1	inactive	
COc1ccc(C(=O)c2ccc(Br)cc2)cc1	inconclusive: 29.1 µM [cytotoxic, single point]	
CN(CCc1ccccc1)C(=O)c1ccc(NC(=O)Cc2ccc(NC(=O)C3CCCN(C(=O)C4CC4)C3)cc2)cc1 (stereo unspecified)	inconclusive: 29.1 µM [cytotoxic, single point]	
CCOC(=O)c1c(C)c(C(=O)NCc2ccc(OC)cc2)c(C)n1C	inactive	
Cc1ccc(NCc2ccc(O)c3ncccc23)cc1	inactive	
CCOc1c2c(c(-c3ccc4c(c3)OCO4)c3cc(OC)c(OC)cc13)C(=O)OC2	active: 1.3 µM	
CCC(=O)Nc1cccc(-c2nnc(SCC(=O)c3ccccc3)n2C)c1	inconclusive: 16.4 µM [rising, single point]	
COc1cccc(CC(=O)Nc2ccc3nc(N4CCC(C)CC4)cc(C)c3c2)c1	inactive	
CCCCNC(=O)c1ccc2c(OCC)n(CCCC)nc2c1	inactive	
Cc1nn(C(=O)c2ccccc2F)c(C)c1S(=O)(=O)N1CCOCC1	inactive	
COc1cc(OC)c(NC(=O)CCNC(=O)Cn2ccc3ccccc3c2=O)cc1Cl	inconclusive: 29.1 µM [cytotoxic, single point]	
COc1ccc([C@H]2CC(=O)C=C(c3cc4ccccc4s3)C2)cc1	inconclusive: 18.4 µM [cytotoxic, single point]	
CC(C)CC(NS(=O)(=O)c1cccc(C(=O)O)c1)C(=O)O (stereo unspecified)	inactive	
Fc1cccc(/C=N/Nc2nccnc2Cl)c1	inconclusive: 9.2 µM [cytotoxic, partial curve]	
CC(=O)Nc1ccc(Nc2nc(-c3ccccc3)nc3ccccc23)cc1	inconclusive: 29.1 µM [cytotoxic, single point]	
Cc1nnsc1S(=O)c1ccc(Cl)cc1 (stereo unspecified)	inconclusive: 23.1 µM [cytotoxic, partial curve, poor fit]	
